Data source: PubChem BioAssay AID504791 (Drosophila RNAi Screening Center, 2011)
In all, the deposit lists about 23,000 reagents; shown is a random part of those with a known target gene and a result. Of all reagents, 199 (0.86%) are marked active. 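Plate-scaled ratios behind the calls are not deposited; printed light signals are raw; many rows marked increased or decreased are still called inactive.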 Reagents against one gene are numbered here. A plus sign joins genes that one reagent is predicted to hit. The record does not give: the direction of the score.

Assay: 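Genes of the fly required for silencing by miRNA, siRNA or endo-siRNA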 (primary screen)
Cell system: Drosophila S2-derived reporter cells
Reagents: long dsRNA against Drosophila genes, about 150-250 ng dsRNA per well (siRNA assay); about 80-120 ng (miRNA assay)
Duration: about 5 days (siRNA assay); about 4 days (miRNA assay)
Challenge: copper sulfate induction of reporters: 25 µM (siRNA assay); 200 mM stated (miRNA assay), 1-2 days before reading
Read-out: 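Per-well ratio of Renilla over firefly light, expressed relative to that plate's average ratio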
Active means: 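First-pass picks had plate-scaled ratios over 1.5 for the siRNA assay, over 1.6 for the miRNA assay, or under 0.6; two distinct dsRNAs had to score alike on retest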

predicted target	reagent	stable siRNA reporter change	miRNA reporter change	stable assay Renilla, run 1 (luminescence)	stable assay firefly, run 1 (luminescence)	outcome
gsb	1			6511	4.54e5	inactive
Cpr47Ec	1			6594	4.75e5	inactive
CG8100	1			8091	4.48e5	inactive
Mob2	1			4176	3.14e5	inactive
Mob2	2			3412	2.83e5	inactive
Mob2	3		reporter ratio lowered past the hit cutoff	6895	3.58e5	inactive
Mob2	4			3620	3.14e5	inactive
PH4alphaNE3	1			7871	4.72e5	inactive
CG7236	1			6791	3.73e5	inactive
CG6296	1			8611	4.58e5	inactive
nolo	1			15690	1.33e6	inactive
nolo	2			6792	4.34e5	inactive
nolo	3			7652	5.76e5	inactive
Spn85F	1			5222	5.08e5	inactive
ninaG	1			7415	4.51e5	inactive
HBS1	1			9583	5.07e5	inactive
grh	1			4892	3.60e5	inactive
grh	2			5820	3.63e5	inactive
grh	3			8403	3.73e5	inactive
grh	4			5282	3.75e5	inactive
SNRPG	1	reporter ratio raised past the hit cutoff		8183	3.85e5	inactive
CG14082	1			7107	4.44e5	inactive
Dro	1			5920	4.00e5	inactive
CG32461	1			4768	3.41e5	inactive
ENGase	1			4798	4.53e5	inactive
ENGase	2			5416	5.27e5	inactive
CG17242	1			8530	4.20e5	inactive
CG1418	1			6779	4.81e5	inactive
CG18262	1			7151	5.24e5	inactive
CG11353	1			7896	4.36e5	inactive
CG13836 (retired record)	1			6843	2.93e5	inactive
CG1789	1			9760	6.25e5	inactive
Syx17	1			8098	4.82e5	inactive
CG1316	1			7515	4.99e5	inactive
Mco3	1			7348	4.41e5	inactive
cDIP	1			9346	3.95e5	inactive
Arf4	1			4204	2.61e5	inactive
Men	1			3639	4.09e5	inactive
Men	2			4011	3.01e5	inactive
Men	3			5551	5.20e5	inactive
MtnB	1	reporter ratio lowered past the hit cutoff		2051	3.44e5	inactive
mtDNA-helicase	1			7542	3.88e5	inactive
Sema2a	1			8111	3.57e5	inactive
hec	1			5555	3.64e5	inactive
mthl6	1			5572	3.71e5	inactive
l(2)09851	1			6663	4.00e5	inactive
Vps16B	1			5602	2.93e5	inactive
CG32079	1			3104	3.35e5	inactive
CG9330	1			7543	3.47e5	inactive
plu	1			5918	2.97e5	inactive
Slc25A46b	1			6972	3.52e5	inactive
CG4465	1			7442	3.43e5	inactive
Acp53Ea	1			6358	3.22e5	inactive
Jhbp16	1			6856	3.66e5	inactive
Sil1	1			11598	5.34e5	inactive
CG14183	1			8164	3.63e5	inactive
Rab23	1			6075	3.24e5	inactive
Piezo	1			3.14e5	3.91e5	inactive
Syt14	1			7379	3.79e5	inactive
Prosalpha4	1			6051	3.15e5	inactive
CG33490	1			7909	5.04e5	inactive
COX5BL	1			7004	4.50e5	inactive
CG14572	1			6054	3.47e5	inactive
CG4239	1		reporter ratio lowered past the hit cutoff	7411	6.52e5	inactive
CHKov1	1			4991	3.68e5	inactive
CHKov1	2			5348	2.99e5	inactive
CHKov1	3			7686	3.16e5	inactive
CHKov1	4			3984	3.09e5	inactive
CG31827 + CG18478	1			8130	3.61e5	inactive
betaNACtes2	1			4607	4.06e5	inactive
CG42560 + CG42559	1			8308	5.62e5	inactive
ms(3)76Cc	1			7608	4.23e5	inactive
ms(3)76Cc	2			8735	4.26e5	inactive
Lmpt	1	reporter ratio raised past the hit cutoff		6587	2.80e5	inactive
Lmpt	2			6234	3.29e5	inactive
Lmpt	3			7295	2.81e5	inactive
Lmpt	4			6668	3.38e5	inactive
Lmpt	5			6970	3.48e5	inactive
Lmpt	6			8821	4.47e5	inactive
Lmpt	7			5088	5.88e5	inactive
MFS3	1			8507	3.99e5	inactive
arx	1	reporter ratio raised past the hit cutoff	reporter ratio raised past the hit cutoff	13734	2.64e5	inactive
ZnT77C	1			7495	3.96e5	inactive
ZnT77C	2			7744	3.69e5	inactive
Cdc23	1			4.00e5	2.08e6	inactive
Eig71Eb	1			7810	3.84e5	inactive
Hex-C	1			6170	3.06e5	inactive
Arf6	1			7199	3.53e5	inactive
Mpi	1			7070	3.24e5	inactive
CG12498	1			6599	3.79e5	inactive
Obp56a	1			5366	2.68e5	inactive
CG14218	1			4539	3.17e5	inactive
okr	1			12287	2.39e5	inactive
neo	1			8490	4.87e5	inactive
Datp	1			5379	4.26e5	inactive
Charon	1			24441	2.94e5	inactive
Ir7g	1			5366	3.45e5	inactive
CG11563	1			7263	5.05e5	inactive
IFT20 + CG10395	1			5463	5.03e5	inactive
BicD	1			80906	2.40e6	inactive
CG10559	1			7230	4.05e5	inactive
Su(dx)	1			30528	1.01e6	inactive
CG7907	1			8166	3.60e5	inactive
CG9689	1			6443	3.48e5	inactive
CG30480	1			6275	3.10e5	inactive
MED19	1			5618	1.84e5	inactive
